PubChem BioAssay AID1224830, NIAID – 2016
Test: 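Host factors that control LPS-induced TNF expression in human macrophages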 (primary screen). System: human THP-1 monocytic leukaemia cells, TNF dual-luciferase reporter clone, PMA-differentiated to macrophage-like cells. Reagent: siRNA pool against human genes, 50 nM. Time to read-out: LPS for 4 h, given about 3 days after siRNA transfection. Conditions: bacterial LPS (TLR4 ligand), 10 ng/ml. Detection: 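TNF firefly reporter luminescence divided by renilla, normalised to the plate median, then turned into a robust z-score for each replicate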. Direction: TNF reporter robust z-score: higher = stronger TNF reporter response to LPS. Call rule: 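a well is active when its z-score exceeds 2.8 or falls below -1.5; control wells carry no call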.
The deposit covers about 18,000 reagents; shown is a part drawn at random. About 2,900 of them (16%) were called active. 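Calls are made per well; low scores hint the gene aids the LPS response, high scores that it dampens it.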 Entries without a mark were called inactive. Repeated entries: four replicate wells of each siRNA pool. Reagent sequences are not shown.

| target | TNF reporter robust z-score |
| --- | --- |
| SIPA1L3 (signal induced proliferation associated 1 like 3) | 0.19 |
| SIPA1L3 (signal induced proliferation associated 1 like 3) | 0.24 |
| SIPA1L3 (signal induced proliferation associated 1 like 3) | 0.03 |
| SIPA1L3 (signal induced proliferation associated 1 like 3) | -1.22 |
| TTC39C (tetratricopeptide repeat domain 39C) | 0.7 |
| TTC39C (tetratricopeptide repeat domain 39C) | 1.28 |
| TTC39C (tetratricopeptide repeat domain 39C) | 0.36 |
| TTC39C (tetratricopeptide repeat domain 39C) | -0.34 |
| TPP2 (tripeptidyl peptidase 2) | 0.02 |
| TPP2 (tripeptidyl peptidase 2) | 0.3 |
| TPP2 (tripeptidyl peptidase 2) | -0.97 |
| TPP2 (tripeptidyl peptidase 2) | -0.7 |
| CCDC97 (coiled-coil domain containing 97) | -1.29 |
| CCDC97 (coiled-coil domain containing 97) | -0.6 |
| CCDC97 (coiled-coil domain containing 97) | -0.96 |
| CCDC97 (coiled-coil domain containing 97) | 0.2 |
| POLM (DNA polymerase mu) | -0.44 |
| POLM (DNA polymerase mu) | -0.42 |
| POLM (DNA polymerase mu) | -0.6 |
| POLM (DNA polymerase mu) | 0.36 |
| SNX29P1 (sorting nexin 29 pseudogene 1) | 0.32 |
| SNX29P1 (sorting nexin 29 pseudogene 1) | 1.08 |
| SNX29P1 (sorting nexin 29 pseudogene 1) | 1.88 |
| SNX29P1 (sorting nexin 29 pseudogene 1) | -0.34 |
| ETFB (electron transfer flavoprotein subunit beta) | -0.29 |
| ETFB (electron transfer flavoprotein subunit beta) | -0.66 |
| ETFB (electron transfer flavoprotein subunit beta) | -0.76 |
| ETFB (electron transfer flavoprotein subunit beta) | -1.53 (active) |
| CSE1L (chromosome segregation 1 like) | 2.41 |
| CSE1L (chromosome segregation 1 like) | 2.31 |
| CSE1L (chromosome segregation 1 like) | 1.79 |
| CSE1L (chromosome segregation 1 like) | 2.46 |
| AP4M1 (adaptor related protein complex 4 subunit mu 1) | 2 |
| AP4M1 (adaptor related protein complex 4 subunit mu 1) | 1.66 |
| AP4M1 (adaptor related protein complex 4 subunit mu 1) | 0.38 |
| AP4M1 (adaptor related protein complex 4 subunit mu 1) | 1.11 |

Reformatted: results already given.
target | TNF reporter robust z-score
TPP2 (tripeptidyl peptidase 2) | 0.3
TPP2 (tripeptidyl peptidase 2) | -0.97
TPP2 (tripeptidyl peptidase 2) | -0.7
CCDC97 (coiled-coil domain containing 97) | -1.29
CCDC97 (coiled-coil domain containing 97) | -0.6
CCDC97 (coiled-coil domain containing 97) | -0.96
CCDC97 (coiled-coil domain containing 97) | 0.2
POLM (DNA polymerase mu) | -0.44
POLM (DNA polymerase mu) | -0.42
POLM (DNA polymerase mu) | -0.6

Additional entries follow.
| target | TNF reporter robust z-score |
| --- | --- |
| HPD (4-hydroxyphenylpyruvate dioxygenase) | -1.35 |
| HPD (4-hydroxyphenylpyruvate dioxygenase) | -0.87 |
| HPD (4-hydroxyphenylpyruvate dioxygenase) | -0.78 |
| HPD (4-hydroxyphenylpyruvate dioxygenase) | -0.94 |
| RAMAC (RNA guanine-7 methyltransferase activating subunit) | 0.29 |
| RAMAC (RNA guanine-7 methyltransferase activating subunit) | 2.14 |
| RAMAC (RNA guanine-7 methyltransferase activating subunit) | 0.41 |
| RAMAC (RNA guanine-7 methyltransferase activating subunit) | 1.16 |
| KLHL23 (kelch like family member 23) | 0.32 |
| KLHL23 (kelch like family member 23) | 0.14 |
| KLHL23 (kelch like family member 23) | 2.45 |
| KLHL23 (kelch like family member 23) | 2.18 |
| TAL1 | -0.57 |
| TAL1 | 0 |
| TAL1 | -0.62 |
| TAL1 | 0.4 |
| WBP2 (WW domain binding protein 2) | 0.21 |
| WBP2 (WW domain binding protein 2) | 0.28 |
| WBP2 (WW domain binding protein 2) | 0.29 |
| WBP2 (WW domain binding protein 2) | 0.85 |
| CARD10 (caspase recruitment domain family member 10) | 1.48 |
| CARD10 (caspase recruitment domain family member 10) | 1.25 |
| CARD10 (caspase recruitment domain family member 10) | 8.88 (active) |
| CARD10 (caspase recruitment domain family member 10) | 0.07 |
| PTPRK (protein tyrosine phosphatase receptor type K) | 2.44 |
| PTPRK (protein tyrosine phosphatase receptor type K) | 1.93 |
| PTPRK (protein tyrosine phosphatase receptor type K) | 0.85 |
| PTPRK (protein tyrosine phosphatase receptor type K) | 0.48 |
| RAI1 (retinoic acid induced 1) | -0.26 |
| RAI1 (retinoic acid induced 1) | 0.14 |
| RAI1 (retinoic acid induced 1) | -0.44 |
| RAI1 (retinoic acid induced 1) | -0.45 |
| LMAN2 (lectin, mannose binding 2) | -0.72 |
| LMAN2 (lectin, mannose binding 2) | -0.82 |
| LMAN2 (lectin, mannose binding 2) | -0.54 |
| LMAN2 (lectin, mannose binding 2) | -0.12 |
| DARS1 (aspartyl-tRNA synthetase 1) | 1.18 |
| DARS1 (aspartyl-tRNA synthetase 1) | -0.03 |
| DARS1 (aspartyl-tRNA synthetase 1) | 0.46 |
| DARS1 (aspartyl-tRNA synthetase 1) | 1.27 |
